In the supplement of paper PMC10849652:
The other results are listed elsewhere or left out.

The chains behind the UniProt entries cited, without tags or fusion partners. Where a name states a change or a piece, a line headed by the entry shows the natural chain unless it says otherwise.
UniProt P13489: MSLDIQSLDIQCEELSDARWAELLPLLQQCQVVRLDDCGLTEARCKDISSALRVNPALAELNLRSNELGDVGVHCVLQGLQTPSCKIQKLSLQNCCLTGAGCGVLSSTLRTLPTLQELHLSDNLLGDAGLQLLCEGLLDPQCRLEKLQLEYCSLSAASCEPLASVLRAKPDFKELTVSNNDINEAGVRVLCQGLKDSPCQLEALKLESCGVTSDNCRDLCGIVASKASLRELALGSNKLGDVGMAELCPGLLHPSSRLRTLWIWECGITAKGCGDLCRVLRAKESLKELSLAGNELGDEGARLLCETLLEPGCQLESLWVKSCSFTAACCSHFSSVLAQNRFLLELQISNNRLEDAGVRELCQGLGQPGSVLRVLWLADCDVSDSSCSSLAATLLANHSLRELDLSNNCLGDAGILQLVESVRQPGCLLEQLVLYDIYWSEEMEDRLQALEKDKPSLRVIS
UniProt Q9P0P0: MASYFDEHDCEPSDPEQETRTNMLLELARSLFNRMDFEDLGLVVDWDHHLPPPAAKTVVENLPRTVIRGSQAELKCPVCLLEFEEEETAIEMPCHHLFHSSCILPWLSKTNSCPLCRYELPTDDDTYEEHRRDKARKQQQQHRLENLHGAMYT
UniProt O75792: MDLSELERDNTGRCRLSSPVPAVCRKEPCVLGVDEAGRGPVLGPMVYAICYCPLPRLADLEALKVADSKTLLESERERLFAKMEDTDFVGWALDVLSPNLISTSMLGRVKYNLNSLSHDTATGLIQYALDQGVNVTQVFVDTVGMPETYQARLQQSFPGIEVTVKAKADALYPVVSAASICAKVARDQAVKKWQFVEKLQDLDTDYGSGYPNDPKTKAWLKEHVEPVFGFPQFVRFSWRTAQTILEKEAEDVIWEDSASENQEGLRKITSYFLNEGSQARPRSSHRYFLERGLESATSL
UniProt Q6NUQ1: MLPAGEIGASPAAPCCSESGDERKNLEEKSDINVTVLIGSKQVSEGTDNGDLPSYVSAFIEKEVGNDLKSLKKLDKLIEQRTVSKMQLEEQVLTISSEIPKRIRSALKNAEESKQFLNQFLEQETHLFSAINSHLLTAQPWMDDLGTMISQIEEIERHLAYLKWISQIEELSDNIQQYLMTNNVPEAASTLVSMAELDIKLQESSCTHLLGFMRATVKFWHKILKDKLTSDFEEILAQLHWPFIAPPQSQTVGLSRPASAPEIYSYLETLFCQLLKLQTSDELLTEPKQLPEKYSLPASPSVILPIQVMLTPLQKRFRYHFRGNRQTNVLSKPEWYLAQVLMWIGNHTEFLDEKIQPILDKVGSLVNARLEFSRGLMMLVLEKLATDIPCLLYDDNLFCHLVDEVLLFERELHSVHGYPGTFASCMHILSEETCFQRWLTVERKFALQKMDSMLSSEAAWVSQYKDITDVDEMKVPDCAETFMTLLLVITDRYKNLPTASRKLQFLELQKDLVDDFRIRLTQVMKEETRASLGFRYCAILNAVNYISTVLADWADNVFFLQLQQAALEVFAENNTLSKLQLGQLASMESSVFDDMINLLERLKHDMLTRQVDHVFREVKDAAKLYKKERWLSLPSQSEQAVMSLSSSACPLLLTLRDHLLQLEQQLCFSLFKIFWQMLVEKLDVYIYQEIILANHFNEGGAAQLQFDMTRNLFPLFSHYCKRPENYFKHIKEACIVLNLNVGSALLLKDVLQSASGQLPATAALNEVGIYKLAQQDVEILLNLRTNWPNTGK
UniProt Q9UBS8: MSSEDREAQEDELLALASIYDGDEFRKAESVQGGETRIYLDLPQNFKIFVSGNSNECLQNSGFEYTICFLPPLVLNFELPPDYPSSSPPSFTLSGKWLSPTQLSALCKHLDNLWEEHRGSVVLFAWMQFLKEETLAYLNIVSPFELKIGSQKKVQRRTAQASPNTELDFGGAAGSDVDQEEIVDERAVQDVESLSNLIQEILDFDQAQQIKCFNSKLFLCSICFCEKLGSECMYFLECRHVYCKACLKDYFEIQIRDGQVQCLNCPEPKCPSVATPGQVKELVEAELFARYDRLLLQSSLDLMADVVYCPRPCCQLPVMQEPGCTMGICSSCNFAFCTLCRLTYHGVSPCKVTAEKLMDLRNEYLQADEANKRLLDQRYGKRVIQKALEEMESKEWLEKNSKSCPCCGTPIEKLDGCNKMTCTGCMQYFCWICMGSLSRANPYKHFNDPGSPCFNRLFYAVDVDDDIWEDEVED
UniProt Q96DB5: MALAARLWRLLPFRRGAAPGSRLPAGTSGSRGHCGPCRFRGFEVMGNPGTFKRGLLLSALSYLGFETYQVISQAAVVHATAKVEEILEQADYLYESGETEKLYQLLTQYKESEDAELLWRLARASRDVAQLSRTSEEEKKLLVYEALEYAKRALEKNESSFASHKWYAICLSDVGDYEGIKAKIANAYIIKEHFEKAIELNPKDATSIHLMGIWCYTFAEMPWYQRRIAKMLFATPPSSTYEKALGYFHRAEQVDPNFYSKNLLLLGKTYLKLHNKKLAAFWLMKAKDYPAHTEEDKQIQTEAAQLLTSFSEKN
UniProt O75150, whole entry, looked up: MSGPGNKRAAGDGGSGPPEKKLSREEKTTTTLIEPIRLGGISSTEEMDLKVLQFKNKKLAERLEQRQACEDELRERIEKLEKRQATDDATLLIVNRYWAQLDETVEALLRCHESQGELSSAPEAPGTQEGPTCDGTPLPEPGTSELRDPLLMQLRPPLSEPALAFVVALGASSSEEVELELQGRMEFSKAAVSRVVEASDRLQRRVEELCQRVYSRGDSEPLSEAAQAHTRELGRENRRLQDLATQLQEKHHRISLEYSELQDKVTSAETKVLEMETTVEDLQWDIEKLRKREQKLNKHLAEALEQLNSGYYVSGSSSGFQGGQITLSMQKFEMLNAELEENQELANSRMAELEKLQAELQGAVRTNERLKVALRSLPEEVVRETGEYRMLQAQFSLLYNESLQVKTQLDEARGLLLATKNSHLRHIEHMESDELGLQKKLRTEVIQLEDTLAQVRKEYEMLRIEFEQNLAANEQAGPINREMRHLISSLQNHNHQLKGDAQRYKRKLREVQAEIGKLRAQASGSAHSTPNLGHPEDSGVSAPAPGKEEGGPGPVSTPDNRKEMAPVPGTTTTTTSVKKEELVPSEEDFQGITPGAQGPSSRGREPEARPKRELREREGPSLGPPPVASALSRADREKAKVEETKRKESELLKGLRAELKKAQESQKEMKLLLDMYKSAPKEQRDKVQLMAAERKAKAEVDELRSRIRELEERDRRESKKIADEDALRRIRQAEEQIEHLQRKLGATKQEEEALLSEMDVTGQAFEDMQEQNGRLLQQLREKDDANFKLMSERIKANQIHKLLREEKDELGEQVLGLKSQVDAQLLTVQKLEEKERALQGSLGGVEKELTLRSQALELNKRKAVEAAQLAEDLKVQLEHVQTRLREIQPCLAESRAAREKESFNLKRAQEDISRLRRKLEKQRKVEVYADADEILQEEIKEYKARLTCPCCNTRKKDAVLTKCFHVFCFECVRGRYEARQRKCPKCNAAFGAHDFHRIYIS
UniProt Q6ZS17: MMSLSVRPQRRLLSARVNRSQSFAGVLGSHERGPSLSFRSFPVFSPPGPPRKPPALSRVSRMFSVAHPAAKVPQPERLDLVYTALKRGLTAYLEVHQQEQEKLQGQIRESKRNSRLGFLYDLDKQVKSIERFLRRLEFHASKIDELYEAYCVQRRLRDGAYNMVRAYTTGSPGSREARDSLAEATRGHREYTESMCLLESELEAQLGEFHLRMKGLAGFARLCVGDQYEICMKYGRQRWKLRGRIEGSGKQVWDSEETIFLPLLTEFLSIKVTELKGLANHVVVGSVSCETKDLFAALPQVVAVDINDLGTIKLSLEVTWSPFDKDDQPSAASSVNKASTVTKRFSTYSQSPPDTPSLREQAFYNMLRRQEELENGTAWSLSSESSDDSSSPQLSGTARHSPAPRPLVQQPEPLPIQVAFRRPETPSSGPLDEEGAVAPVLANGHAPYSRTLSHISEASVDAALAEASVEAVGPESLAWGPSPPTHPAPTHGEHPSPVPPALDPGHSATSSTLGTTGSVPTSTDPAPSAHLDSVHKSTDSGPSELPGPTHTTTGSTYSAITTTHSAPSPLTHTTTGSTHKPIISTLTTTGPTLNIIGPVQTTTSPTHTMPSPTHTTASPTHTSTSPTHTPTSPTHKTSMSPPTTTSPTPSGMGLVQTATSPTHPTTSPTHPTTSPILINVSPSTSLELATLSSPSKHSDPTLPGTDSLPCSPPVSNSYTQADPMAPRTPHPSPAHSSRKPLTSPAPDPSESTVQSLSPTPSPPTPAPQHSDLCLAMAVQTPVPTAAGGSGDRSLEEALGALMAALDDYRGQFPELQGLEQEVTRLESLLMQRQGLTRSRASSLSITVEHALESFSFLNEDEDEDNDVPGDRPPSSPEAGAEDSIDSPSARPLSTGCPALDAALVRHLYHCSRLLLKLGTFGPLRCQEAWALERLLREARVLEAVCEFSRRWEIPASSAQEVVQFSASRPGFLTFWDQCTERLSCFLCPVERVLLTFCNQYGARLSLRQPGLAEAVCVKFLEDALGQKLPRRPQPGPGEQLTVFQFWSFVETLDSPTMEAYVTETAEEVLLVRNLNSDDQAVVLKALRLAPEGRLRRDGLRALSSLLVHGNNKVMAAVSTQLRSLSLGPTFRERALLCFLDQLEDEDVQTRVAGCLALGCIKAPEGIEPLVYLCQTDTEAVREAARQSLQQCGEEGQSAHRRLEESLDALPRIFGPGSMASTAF
UniProt Q9H871: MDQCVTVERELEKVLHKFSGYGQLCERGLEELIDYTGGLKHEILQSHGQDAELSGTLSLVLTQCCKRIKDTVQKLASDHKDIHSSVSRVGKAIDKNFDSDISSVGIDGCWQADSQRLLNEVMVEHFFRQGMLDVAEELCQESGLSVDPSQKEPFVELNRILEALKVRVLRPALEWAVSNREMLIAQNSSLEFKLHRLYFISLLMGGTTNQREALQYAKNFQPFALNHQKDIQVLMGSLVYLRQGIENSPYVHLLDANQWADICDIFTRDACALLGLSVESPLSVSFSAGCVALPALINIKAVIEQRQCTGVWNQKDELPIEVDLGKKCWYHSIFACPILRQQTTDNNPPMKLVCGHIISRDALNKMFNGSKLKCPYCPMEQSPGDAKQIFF
UniProt Q05823: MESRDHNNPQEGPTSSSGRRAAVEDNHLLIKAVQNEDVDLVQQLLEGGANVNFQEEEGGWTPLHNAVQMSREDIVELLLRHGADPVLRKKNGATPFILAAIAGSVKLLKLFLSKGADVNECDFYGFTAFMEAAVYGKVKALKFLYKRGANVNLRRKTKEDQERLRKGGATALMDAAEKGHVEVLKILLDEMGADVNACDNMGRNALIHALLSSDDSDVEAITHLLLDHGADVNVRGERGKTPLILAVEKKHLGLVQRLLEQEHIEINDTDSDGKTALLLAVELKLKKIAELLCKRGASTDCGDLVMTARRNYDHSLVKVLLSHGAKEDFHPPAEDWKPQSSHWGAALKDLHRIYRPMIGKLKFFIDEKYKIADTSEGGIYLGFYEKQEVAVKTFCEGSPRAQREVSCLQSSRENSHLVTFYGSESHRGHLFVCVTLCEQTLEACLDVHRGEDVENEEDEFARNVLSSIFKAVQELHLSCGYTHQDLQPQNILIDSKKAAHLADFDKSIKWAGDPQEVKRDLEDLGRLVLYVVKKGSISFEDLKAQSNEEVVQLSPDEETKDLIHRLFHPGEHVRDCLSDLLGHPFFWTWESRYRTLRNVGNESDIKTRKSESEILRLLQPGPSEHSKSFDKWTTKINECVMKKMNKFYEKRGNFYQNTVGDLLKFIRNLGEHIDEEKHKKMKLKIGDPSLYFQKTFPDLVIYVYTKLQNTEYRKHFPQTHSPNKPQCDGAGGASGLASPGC

Columns and labels:
Experiment in all cases: log2 fold change, soluble protein after heating vs DMSO (PISA); higher = thermal stabilisation; K562 lysate, 10 uM; active = over 0.2 and 3.5 SD of the protein, either way, in both replicates (recomputed)
lapatinib = compound: CS(=O)(=O)CCNCc1ccc(-c2ccc3ncnc(Nc4ccc(OCc5cccc(F)c5)c(Cl)c4)c3c2)o1 [lapatinib]
How it was run: (§1)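 Log-two fold change in thermal stability relative to solvent controls is reported from duplicates. For each sample, crude K562 extract from dounce-homogenised pellets in PBS pH 7.4 with 1 mM MgCl2, at 1 mg/mL protein, was treated with 10 μM compound for 30 min. Aliquots heated for 3 min across 48°C-58°C were pooled, brought to 0.5% NP-40 at 4°C and cleared at 21,000xg for 90 min. The supernatant was quantified by TMTpro 16plex LC-MS/MS with channel sums equalised.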

pictilisib = compound: CS(=O)(=O)N1CCN(Cc2cc3nc(-c4cccc5[nH]ncc45)nc(N4CCOCC4)c3s2)CC1 [pictilisib]
How it was run: as §1

crizotinib = compound: C[C@@H](Oc1cc(-c2cnn(C3CCNCC3)c2)cnc1N)c1c(Cl)ccc(F)c1Cl [crizotinib]
How it was run: as §1

[1] = compound: C[C@H](C1=CC=C(C=C1)C(=O)NC2=C3C=CNC3=NC=C2)N
How it was run: as §1

duvelisib = compound: C[C@H](Nc1ncnc2nc[nH]c12)c1cc2cccc(Cl)c2c(=O)n1-c1ccccc1 [duvelisib]
How it was run: as §1

gandotinib = compound: Cc1cc(Nc2cc(CN3CCOCC3)c3nc(C)c(Cc4ccc(Cl)cc4F)n3n2)n[nH]1 [gandotinib]
How it was run: as §1

tozasertib = compound: Cc1cc(Nc2cc(N3CCN(C)CC3)nc(Sc3ccc(NC(=O)C4CC4)cc3)n2)n[nH]1 [tozasertib]
How it was run: as §1

doramapimod = compound: Cc1ccc(-n2nc(C(C)(C)C)cc2NC(=O)Nc2ccc(OCCN3CCOCC3)c3ccccc23)cc1 [doramapimod]
How it was run: as §1

bafetinib = compound: Cc1ccc(NC(=O)c2ccc(CN3CC[C@H](N(C)C)C3)c(C(F)(F)F)c2)cc1Nc1nccc(-c2cncnc2)n1 [bafetinib]
How it was run: as §1

[2] = compound: Cc1cccc(CC(=O)N2CCc3c2ccc(-c2cn(C)c4ncnc(N)c24)c3F)n1
How it was run: as §1

nilotinib = compound: Cc1cn(-c2cc(NC(=O)c3ccc(C)c(Nc4nccc(-c5cccnc5)n4)c3)cc(C(F)(F)F)c2)cn1 [nilotinib]
How it was run: as §1

[3] = compound: Cc1nc(Nc2n[nH]c3c2CN(C(=O)N[C@H](CN(C)C)c2ccccc2)C3(C)C)c2sccc2n1
How it was run: as §1

dasatinib = compound: Cc1nc(Nc2ncc(C(=O)Nc3c(C)cccc3Cl)s2)cc(N2CCN(CCO)CC2)n1 [dasatinib]
How it was run: as §1

[4] = compound: Cc1ncc(-c2ccnc(Nc3ccc(S(C)(=O)=O)cc3)n2)n1C(C)C
How it was run: as §1

[5] = compound: Cn1cc(-c2ccc3c(c2)CCN3C(=O)Cc2cccc(C(F)(F)F)c2)c2c(N)ncnc21
How it was run: as §1

quisinostat = compound: Cn1cc(CNCC2CCN(c3ncc(C(=O)NO)cn3)CC2)c2ccccc21 [quisinostat]
How it was run: as §1

tipifarnib = compound: Cn1cncc1[C@@](N)(c1ccc(Cl)cc1)c1ccc2c(c1)c(-c1cccc(Cl)c1)cc(=O)n2C [tipifarnib]
How it was run: as §1

[6] = compound: NC(=O)Nc1cc(-c2cccc(F)c2)sc1C(=O)N[C@H]1CCCNC1
How it was run: as §1

[7] = compound: NC(=O)c1cnc(N[C@@H]2CCCC[C@@H]2N)nc1Nc1cccc(-n2nccn2)c1
How it was run: as §1

[8] = compound: NC1(c2ccc(-c3nc4ccn5c(=O)[nH]nc5c4cc3-c3ccccc3)cc2)CCC1
How it was run: as §1

| Target | log2 fold change (lapatinib) | log2 fold change (pictilisib) | log2 fold change (crizotinib) | log2 fold change [1] | log2 fold change (duvelisib) | log2 fold change (gandotinib) | log2 fold change (tozasertib) | log2 fold change (doramapimod) | log2 fold change (bafetinib) | log2 fold change [2] | log2 fold change (nilotinib) | log2 fold change [3] | log2 fold change (dasatinib) | log2 fold change [4] | log2 fold change [5] | log2 fold change (quisinostat) | log2 fold change (tipifarnib) | log2 fold change [6] | log2 fold change [7] | log2 fold change [8] |
| --- | --- | --- | --- | --- | --- | --- | --- | --- | --- | --- | --- | --- | --- | --- | --- | --- | --- | --- | --- | --- |
| RNH1 (UniProt P13489) | inactive: -0.023 | inactive: -0.025 | inactive: -0.032 | inactive: -0.119 | inactive: -0.031 | inactive: -0.007 | inactive: -0.007 | inactive: 0.087 | inactive: 0.027 | inactive: 0.049 | inactive: 0.037 | inactive: 0.05 | inactive: 0.007 | inactive: 0.058 | inactive: -0.029 | inactive: 0.024 | inactive: -0.034 | inactive: -0.024 | inactive: -0.014 | inactive: 0.016 |
| RNF181 (UniProt Q9P0P0) | inactive: 0.079 | inactive: -0.069 | inactive: 0.049 | inactive: 0.057 | inactive: 0.028 | inactive: -0.042 | inactive: 0.054 | inactive: 0.057 | inactive: -0.03 | inactive: 0.01 | inactive: 0.023 | inactive: 0.027 | inactive: 0.013 | inactive: 0.007 | inactive: -0.004 | inactive: -0.027 | inactive: -0.03 | inactive: 0.006 | inactive: -0.01 | inactive: -0.023 |
| RPL13A (UniProt P40429) | inactive: -0.027 | inactive: -0.017 | inactive: 0.001 | inactive: -0.002 | inactive: 0.024 | inactive: -0.004 | inactive: -0.011 | inactive: 0.02 | inactive: 0.003 | inactive: 0.005 | inactive: 0.025 | inactive: -0.04 | inactive: -0.006 | inactive: 0.008 | inactive: 0.012 | inactive: 0.016 | inactive: 0.01 | inactive: -0.021 | inactive: -0.005 | inactive: 0.025 |
| RNASEH2A (UniProt O75792) | inactive: -0.006 | inactive: 0.027 | inactive: 0.013 | inactive: -0.04 | inactive: 0.005 | inactive: 0.015 | inactive: 0.055 | inactive: 0.066 | inactive: 0.013 | inactive: 0.001 | inactive: 0.038 | inactive: -0.03 | inactive: -0.016 | inactive: -0.027 | inactive: 0.022 | inactive: -0.002 | inactive: -0.03 | inactive: -0.021 | inactive: -0.001 | inactive: -0.059 |
| RINT1 (UniProt Q6NUQ1) | inactive: -0.069 | inactive: -0.065 | inactive: -0.06 | inactive: -0.058 | inactive: 0.046 | inactive: -0.039 | inactive: 0.025 | inactive: 0.069 | inactive: -0.058 | inactive: 0.132 | inactive: 0.043 | inactive: 0.075 | inactive: -0.115 | inactive: 0.028 | inactive: 0.012 | inactive: -0.029 | inactive: -0.044 | inactive: 0.071 | inactive: 0.001 | inactive: -0.014 |
| RPL36A (UniProt P83881) | inactive: -0.028 | inactive: 0.066 | inactive: -0.009 | inactive: -0.034 | inactive: -0.038 | inactive: 0.036 | inactive: -0.037 | inactive: -0.007 | inactive: -0.063 | inactive: 0.043 | inactive: 0 | inactive: -0.01 | inactive: -0.055 | inactive: 0.025 | inactive: -0.108 | inactive: -0.011 | inactive: 0.018 | inactive: -0.044 | inactive: -0.013 | inactive: -0.04 |
| RPL27 (UniProt P61353) | inactive: -0.04 | inactive: 0.008 | inactive: 0.013 | active: 0.411 | inactive: 0.012 | inactive: -0.098 | inactive: 0.01 | inactive: -0.034 | inactive: -0.033 | inactive: -0.118 | inactive: 0.022 | inactive: -0.029 | inactive: -0.049 | inactive: 0.01 | inactive: 0 | inactive: 0.054 | inactive: -0.01 | inactive: -0.017 | inactive: -0.023 | inactive: 0.012 |
| RPL10 (UniProt P27635) | inactive: -0.02 | inactive: -0.011 | inactive: 0.023 | inactive: 0.154 | inactive: 0.034 | inactive: -0.118 | inactive: 0.014 | inactive: -0.033 | inactive: 0.019 | inactive: -0.116 | inactive: 0.021 | inactive: -0.033 | inactive: 0.039 | inactive: 0.012 | inactive: -0.003 | inactive: 0.037 | inactive: 0.032 | inactive: -0.02 | inactive: 0.008 | inactive: 0.003 |
| RPL3 (UniProt P39023) | inactive: -0.096 | inactive: 0.009 | inactive: 0.092 | inactive: 0.094 | inactive: 0.021 | inactive: -0.064 | inactive: 0.008 | inactive: -0.042 | inactive: 0.017 | inactive: -0.082 | inactive: 0.006 | inactive: -0.006 | inactive: 0.032 | inactive: -0.01 | inactive: 0.024 | inactive: 0.156 | inactive: 0.012 | inactive: 0 | inactive: -0.011 | inactive: 0.019 |
| RNF14 (UniProt Q9UBS8) | inactive: -0.026 | inactive: -0.018 | inactive: -0.046 | inactive: 0.011 | inactive: 0.016 | inactive: -0.019 | inactive: 0 | inactive: 0.069 | inactive: -0.045 | inactive: 0.026 | inactive: 0.01 | inactive: -0.002 | inactive: 0.016 | inactive: -0.013 | inactive: 0.012 | inactive: -0.05 | inactive: 0.012 | inactive: 0.01 | inactive: 0.021 | inactive: -0.035 |
| RPL28 (UniProt P46779) | inactive: 0.01 | inactive: 0.047 | inactive: 0.043 | inactive: 0.234 | inactive: 0.018 | inactive: -0.098 | inactive: -0.018 | inactive: -0.046 | inactive: 0.056 | inactive: -0.059 | inactive: -0.018 | inactive: -0.011 | inactive: 0.009 | inactive: -0.015 | inactive: -0.005 | inactive: 0.08 | inactive: 0.002 | inactive: -0.028 | inactive: -0.011 | inactive: -0.023 |
| RMDN1 (UniProt Q96DB5) | inactive: 0.02 | inactive: -0.01 | inactive: 0.006 | inactive: 0.046 | inactive: -0.005 | inactive: -0.025 | inactive: 0 | inactive: 0.033 | inactive: 0.023 | inactive: -0.017 | inactive: 0.048 | inactive: 0 | inactive: -0.015 | inactive: -0.002 | inactive: 0.009 | inactive: 0.052 | inactive: 0.023 | inactive: 0.005 | inactive: 0.001 | inactive: 0.014 |
| RNF40 (UniProt O75150) | inactive: -0.019 | inactive: -0.005 | inactive: -0.01 | inactive: -0.011 | inactive: -0.001 | inactive: -0.048 | inactive: -0.002 | inactive: 0.002 | inactive: 0.01 | inactive: 0.03 | inactive: -0.022 | inactive: 0.009 | inactive: -0.012 | inactive: 0.003 | inactive: 0.031 | inactive: -0.029 | inactive: 0.003 | inactive: 0.031 | inactive: 0.009 | inactive: -0.012 |
| RIPOR1 isoform 4 (UniProt Q6ZS17) | inactive: 0.034 | inactive: -0.071 | inactive: -0.063 | inactive: -0.012 | inactive: 0.01 | inactive: -0.105 | inactive: -0.061 | inactive: 0.07 | inactive: -0.048 | inactive: 0.017 | inactive: -0.042 | inactive: -0.019 | inactive: -0.085 | inactive: -0.189 | inactive: 0.056 | inactive: -0.046 | inactive: 0.018 | inactive: 0.036 | inactive: -0.019 | inactive: -0.032 |
| RMND5A (UniProt Q9H871) | inactive: -0.022 | inactive: 0.002 | inactive: -0.093 | inactive: -0.1 | inactive: 0.007 | inactive: 0.022 | inactive: 0.056 | inactive: 0.063 | inactive: -0.034 | inactive: 0.08 | inactive: -0.017 | inactive: 0.015 | inactive: 0.007 | inactive: 0.002 | inactive: -0.01 | inactive: -0.095 | inactive: -0.01 | inactive: 0 | inactive: 0.006 | inactive: 0.002 |
| RNASEL (UniProt Q05823) | inactive: -0.034 | inactive: -0.076 | inactive: -0.04 | inactive: -0.011 | inactive: 0.007 | inactive: -0.068 | inactive: -0.014 | inactive: -0.007 | inactive: -0.018 | inactive: -0.013 | inactive: -0.034 | inactive: 0.035 | inactive: -0.014 | inactive: -0.013 | inactive: 0.02 | inactive: -0.06 | inactive: -0.016 | inactive: 0.042 | inactive: 0.026 | inactive: -0.064 |

Single records (already shown). Values in the order: log2 fold change (lapatinib)	log2 fold change (pictilisib)	log2 fold change (crizotinib)	log2 fold change [1]	log2 fold change (duvelisib)	log2 fold change (gandotinib)	log2 fold change (tozasertib)	log2 fold change (doramapimod)	log2 fold change (bafetinib)	log2 fold change [2]	log2 fold change (nilotinib)	log2 fold change [3]	log2 fold change (dasatinib)	log2 fold change [4]	log2 fold change [5]	log2 fold change (quisinostat)	log2 fold change (tipifarnib)	log2 fold change [6]	log2 fold change [7]	log2 fold change [8]
RPL13A (UniProt P40429) in the list: inactive: -0.027	inactive: -0.017	inactive: 0.001	inactive: -0.002	inactive: 0.024	inactive: -0.004	inactive: -0.011	inactive: 0.02	inactive: 0.003	inactive: 0.005	inactive: 0.025	inactive: -0.04	inactive: -0.006	inactive: 0.008	inactive: 0.012	inactive: 0.016	inactive: 0.01	inactive: -0.021	inactive: -0.005	inactive: 0.025
RNH1 (UniProt P13489) in the list: inactive: -0.023	inactive: -0.025	inactive: -0.032	inactive: -0.119	inactive: -0.031	inactive: -0.007	inactive: -0.007	inactive: 0.087	inactive: 0.027	inactive: 0.049	inactive: 0.037	inactive: 0.05	inactive: 0.007	inactive: 0.058	inactive: -0.029	inactive: 0.024	inactive: -0.034	inactive: -0.024	inactive: -0.014	inactive: 0.016
